Results are given in words; binding and its absence hold for the method and conditions named. Binding seen in cells or lysates may run through a third protein. Some binding calls cover weakened binding; strength is not graded here.
What was measured:
[1] = target: human Na/K-ATPase α2 subunit fused to mCyRFP1 (donor) or mMaroon1 (acceptor) (human) (UniProt P50993); assay: FRET or BRET; fluorescence lifetime (FLIM and TCSPC point measurements) in live HEK293-AAV cells; donor mCyRFP1-α, acceptor PLM-mMaroon1, 1:5 donor:acceptor, unlabeled β1 co-expressed; in PBS; also with 10 μM ouabain (FRET not affected); competition with unlabeled competitor (1:4 donor:unlabeled, 1:1 donor:acceptor)
[2] = target: human Na/K-ATPase α2 subunit fused to mCyRFP1 (donor) or mMaroon1 (acceptor) (human) (UniProt P50993); assay: FRET or BRET; fluorescence lifetime imaging (FLIM) and TCSPC in live HEK293-AAV cells; mCyRFP1- and mMaroon1-labeled α isoforms in combinations; donor lifetime against donor alone
[3] = target: human Na/K-ATPase α3 subunit fused to mCyRFP1 (donor) or mMaroon1 (acceptor) (human) (UniProt P13637); assay: as above

By UniProt entry, the sequences of proteins in these tests, tags left out. Residues count along the entry.
UniProt O00168, residues 21-92: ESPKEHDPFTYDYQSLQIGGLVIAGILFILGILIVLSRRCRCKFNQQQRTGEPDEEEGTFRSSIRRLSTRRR

Row | Substance | binding [1] | binding [2] | also measured
1 | PLM-mMaroon1 (human phospholemman fused to the N-terminus of mMaroon1) (from UniProt O00168 21-92) | binds | – | –
2 | human Na/K-ATPase α2 subunit fused to mCyRFP1 (donor) or mMaroon1 (acceptor) (from UniProt P50993 1-1020) | – | binds | –
3 | human Na/K-ATPase α3 subunit fused to mCyRFP1 (donor) or mMaroon1 (acceptor) (from UniProt P13637 1-1013) | – | binds | –
4 | human Na/K-ATPase α3 subunit fused to mCyRFP1 (donor) or mMaroon1 (acceptor) (from UniProt P13637 1-1013) (other; other documents disagree on this pair) | – | – | binding [3]: binds
5 | unlabeled PLM (human phospholemman) (from UniProt O00168 21-92) | binds | – | –
